The values that follow are results of earlier work, collected in article PMC11365112, “Time-resolved fluorescence of tryptophan characterizes membrane perturbation by cyclic lipopeptides” (Biophysical Journal, 2024).

On this data set, the source says: As a consequence, dipolar relaxation is possible to a similar extent in both but slower in heavy water. For virtually fully buffer-exposed Trp in NATA, switching from buffer prepared with normal water to buffer prepared with heavy water increases the relaxation time by a factor of RD/H = trel(D2O)/trel(H2O) = 1.53 ([78]). A similarly high RD/H is expected whenever relaxation proceeds via bulk-like water reorientation only. For the mostly membrane-inserted W-viscosins in ...

With `CCCCCCCCCCCC(=O)c1ccc2cc(N(C)C)ccc2c1` [Laurdan], the RD/H (probe in carbonyl region of POPC membranes) is given as 1.18. On to `CC(=O)N[C@@H](Cc1c[nH]c2ccccc12)C(N)=O` [NATA, N-Acetyl-L-tryptophan amide], for which, for the setting “fully buffer-exposed Trp in buffer”, the “RD/H = trel(D2O)/trel(H2O)” value is on record as 1.53.
